# Earlier results in patent US20260232639A1, “COMPOUNDS FOR USE IN THE TREATMENT OF SCHIZOPHRENIA” (ONTRACK THERAPEUTICS LIMITED, priority 2023, published 2026).
# At least one structure is not confirmed: it was looked up by name or label, or the drawing left a doubt.
# Test system: scPCP treated rats
# Settings: 7-day treatment; female rats; McLean et al., 2008, 2012; cited from earlier work
smiles,measurement,value
CN1CCN(C2=Nc3cc(Cl)ccc3Nc3ccccc32)CC1 [clozapine],Reversal of scPCP deficit in the extra-dimensional shift,reversed
